From patent US20230356105A1, “TETRAAZADODECANE BASED CHELATING AGENTS FOR SEPARATION OF RARE EARTH ELEMENTS AND METHOD THEREFOR” (Ustav Organicke Chemie a Biochemie AV CR V.V.I., priority 2020, published 2023)

Assay: Use of additives to improve separation of Nd/Dy mixture by precipitation with L5 (Example 18)
Type: physicochemical
Conditions: 11 mM L5
Method: Stock solutions were pipetted into plastic 1×1 cm cuvettes to prepare reaction mixtures with concentrations as follows: • 1. […] 5 mM NdCl3 • 3. 5 mM DyCl3 • 4. 500 mM MOPS pH=7 • 5. the additive of interest, in a variable concentration; if possible, stock solutions were prepared from Na^+ salt forms of the compound; if not, the stock solutions were titrated by NaOH/HCl to pH=7 prior to addition (see Table 12 for additives and concentrations)
These aqueous reaction mixtures, each prepared to a total volume of 2.0 mL with the addition of water as necessary, were mixed by the use of a PTFE-coated stir bar on a magnetic stirrer. The cuvettes were sealed with transparent tape to prevent evaporation overnight. The reaction mixtures were stirred for 18 hours, at which point 500 μL aliquots of each reaction mixture were transferred into plastic 2 mL Eppendorf tubes and centrifuged. The supernatants were carefully pipetted out and transferred to a new set of tubes. The precipitate was dissolved by addition of 500 μL 1M HCl. The absolute concentration of Nd and Dy in each supernatant and precipitate was determined by ICP-OES.

For NCC(=O)O [glycine], the “Separation factor (Dy/Nd)” value (additive 50 mM) was 15.1, the “Separation factor (Dy/Nd)” value (additive 100 mM) was 7.8 and the “Separation factor (Dy/Nd)” value (additive 150 mM) was 42.0. For the same compound, the “Separation factor (Dy/Nd)” value (additive 200 mM) was 25.7.

With O=C(O)CO [glycolate] the “Separation factor (Dy/Nd)” value (additive 5 mM) was 33.3, the “Separation factor (Dy/Nd)” value (additive 10 mM) was 42.8 and the “Separation factor (Dy/Nd)” value (additive 15 mM) was 37.1. The “Separation factor (Dy/Nd)” value (additive 20 mM) was 31.5.

For C[C@H](O)C(=O)O [l-lactate], the “Separation factor (Dy/Nd)” value (additive 5 mM) was 4.3, the “Separation factor (Dy/Nd)” value (additive 10 mM) was 25.8 and the “Separation factor (Dy/Nd)” value (additive 15 mM) was 18.1. For the same compound, the “Separation factor (Dy/Nd)” value (additive 20 mM) was 26.3.

For O=[N+]([O-])O [nitrate], the “Separation factor (Dy/Nd)” value (additive 100 mM) was 2.6, the “Separation factor (Dy/Nd)” value (additive 200 mM) was 2.9 and the “Separation factor (Dy/Nd)” value (additive 500 mM) was 6.2. For the same compound, the “Separation factor (Dy/Nd)” value (additive 1000 mM) was 16.7.

For OB(O)c1ccccc1 [phenylboronic acid], the “Separation factor (Dy/Nd)” value (additive 20 mM) was 4.3 and the “Separation factor (Dy/Nd)” value (additive 250 mM) was 1.7.

For c1ccncc1 [pyridine], the “Separation factor (Dy/Nd)” value (additive 20 mM) was 5.0 and the “Separation factor (Dy/Nd)” value (additive 250 mM) was 5.3.

For O=C(O)[C@@H](O)c1ccccc1 [s-mandelic acid], the “Separation factor (Dy/Nd)” value (additive 20 mM) was 32.4.

With O=C(O)c1ccccc1O [salicylic acid] the “Separation factor (Dy/Nd)” value (additive 20 mM) was 6.8.

In the case of O=S(=O)(O)O [sulfate], the “Separation factor (Dy/Nd)” value (additive 100 mM) is reported as 5.7, the “Separation factor (Dy/Nd)” value (additive 250 mM) is reported as 7.4 and the “Separation factor (Dy/Nd)” value (additive 500 mM) is reported as 2.1. The “Separation factor (Dy/Nd)” value (additive 1000 mM) was 4.8.

For N#C[S-].[Na+] [thiocyanate], the “Separation factor (Dy/Nd)” value (additive 100 mM) was 2.3, the “Separation factor (Dy/Nd)” value (additive 200 mM) was 1.3 and the “Separation factor (Dy/Nd)” value (additive 500 mM) was 2.2. For the same compound, the “Separation factor (Dy/Nd)” value (additive 1000 mM) was 5.8.

For CC(C)(O)C(=O)O [α-HIBA, alpha-hydroxyisobutyric acid], the “Separation factor (Dy/Nd)” value (additive 5 mM) was 26.5, the “Separation factor (Dy/Nd)” value (additive 10 mM) was 43.4 and the “Separation factor (Dy/Nd)” value (additive 15 mM) was 37.2. For the same compound, the “Separation factor (Dy/Nd)” value (additive 20 mM) was 28.4.
